Assay results: the supplement of paper PMC10849652
This is one part of the list.

By UniProt entry, the sequences of proteins in these tests, tags left out. Where a name states a change or a piece, a line headed by the entry shows the natural chain unless it says otherwise.
UniProt Q6UWP2: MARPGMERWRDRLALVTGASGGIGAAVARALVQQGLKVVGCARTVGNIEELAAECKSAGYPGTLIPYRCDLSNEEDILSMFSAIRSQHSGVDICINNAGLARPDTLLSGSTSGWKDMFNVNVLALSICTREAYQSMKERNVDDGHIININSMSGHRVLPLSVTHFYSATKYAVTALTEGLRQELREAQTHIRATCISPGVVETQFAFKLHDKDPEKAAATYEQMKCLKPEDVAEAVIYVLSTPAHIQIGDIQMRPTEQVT
UniProt O43143: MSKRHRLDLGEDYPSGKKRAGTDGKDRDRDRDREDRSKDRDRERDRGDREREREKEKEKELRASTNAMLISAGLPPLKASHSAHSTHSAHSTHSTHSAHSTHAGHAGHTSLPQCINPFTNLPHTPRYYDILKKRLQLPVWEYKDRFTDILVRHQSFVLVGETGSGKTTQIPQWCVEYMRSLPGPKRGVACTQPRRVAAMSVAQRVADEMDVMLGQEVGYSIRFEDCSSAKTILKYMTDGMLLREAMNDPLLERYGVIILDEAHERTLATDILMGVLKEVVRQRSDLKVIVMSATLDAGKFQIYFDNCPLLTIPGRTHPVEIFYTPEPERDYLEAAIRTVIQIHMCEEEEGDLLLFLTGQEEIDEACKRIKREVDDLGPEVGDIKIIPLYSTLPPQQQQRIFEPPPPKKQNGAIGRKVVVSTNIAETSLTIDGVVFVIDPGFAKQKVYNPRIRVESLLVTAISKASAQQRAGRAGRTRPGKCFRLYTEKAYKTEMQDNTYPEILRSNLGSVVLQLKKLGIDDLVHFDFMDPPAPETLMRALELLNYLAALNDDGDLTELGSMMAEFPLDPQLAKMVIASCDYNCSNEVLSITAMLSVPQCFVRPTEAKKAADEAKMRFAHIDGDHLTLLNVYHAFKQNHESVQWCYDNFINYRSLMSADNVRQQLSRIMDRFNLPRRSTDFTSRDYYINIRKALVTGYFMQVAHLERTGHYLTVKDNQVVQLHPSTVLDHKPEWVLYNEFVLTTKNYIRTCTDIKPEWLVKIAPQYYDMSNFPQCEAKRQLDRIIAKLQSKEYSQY
UniProt Q9BUQ8: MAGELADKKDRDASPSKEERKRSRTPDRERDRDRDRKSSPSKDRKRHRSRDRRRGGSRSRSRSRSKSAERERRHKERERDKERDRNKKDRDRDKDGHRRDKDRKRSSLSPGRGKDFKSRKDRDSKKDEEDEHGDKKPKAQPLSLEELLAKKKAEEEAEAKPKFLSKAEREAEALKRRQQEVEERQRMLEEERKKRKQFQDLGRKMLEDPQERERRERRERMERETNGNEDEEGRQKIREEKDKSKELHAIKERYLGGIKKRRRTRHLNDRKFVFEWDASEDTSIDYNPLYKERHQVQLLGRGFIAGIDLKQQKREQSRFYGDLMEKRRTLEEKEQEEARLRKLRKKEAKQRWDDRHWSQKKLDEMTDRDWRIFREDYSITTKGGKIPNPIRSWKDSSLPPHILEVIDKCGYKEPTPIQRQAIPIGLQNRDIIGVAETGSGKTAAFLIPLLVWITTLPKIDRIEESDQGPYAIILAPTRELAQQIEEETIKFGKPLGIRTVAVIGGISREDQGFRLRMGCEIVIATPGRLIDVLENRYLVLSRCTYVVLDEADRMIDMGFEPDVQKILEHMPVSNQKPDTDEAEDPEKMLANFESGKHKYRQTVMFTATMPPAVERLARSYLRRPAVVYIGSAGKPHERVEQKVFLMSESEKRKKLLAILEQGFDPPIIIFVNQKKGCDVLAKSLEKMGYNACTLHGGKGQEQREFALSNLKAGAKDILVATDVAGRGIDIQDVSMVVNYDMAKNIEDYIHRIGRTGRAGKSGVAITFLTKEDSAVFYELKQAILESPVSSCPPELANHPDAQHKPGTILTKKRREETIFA
UniProt Q9P265: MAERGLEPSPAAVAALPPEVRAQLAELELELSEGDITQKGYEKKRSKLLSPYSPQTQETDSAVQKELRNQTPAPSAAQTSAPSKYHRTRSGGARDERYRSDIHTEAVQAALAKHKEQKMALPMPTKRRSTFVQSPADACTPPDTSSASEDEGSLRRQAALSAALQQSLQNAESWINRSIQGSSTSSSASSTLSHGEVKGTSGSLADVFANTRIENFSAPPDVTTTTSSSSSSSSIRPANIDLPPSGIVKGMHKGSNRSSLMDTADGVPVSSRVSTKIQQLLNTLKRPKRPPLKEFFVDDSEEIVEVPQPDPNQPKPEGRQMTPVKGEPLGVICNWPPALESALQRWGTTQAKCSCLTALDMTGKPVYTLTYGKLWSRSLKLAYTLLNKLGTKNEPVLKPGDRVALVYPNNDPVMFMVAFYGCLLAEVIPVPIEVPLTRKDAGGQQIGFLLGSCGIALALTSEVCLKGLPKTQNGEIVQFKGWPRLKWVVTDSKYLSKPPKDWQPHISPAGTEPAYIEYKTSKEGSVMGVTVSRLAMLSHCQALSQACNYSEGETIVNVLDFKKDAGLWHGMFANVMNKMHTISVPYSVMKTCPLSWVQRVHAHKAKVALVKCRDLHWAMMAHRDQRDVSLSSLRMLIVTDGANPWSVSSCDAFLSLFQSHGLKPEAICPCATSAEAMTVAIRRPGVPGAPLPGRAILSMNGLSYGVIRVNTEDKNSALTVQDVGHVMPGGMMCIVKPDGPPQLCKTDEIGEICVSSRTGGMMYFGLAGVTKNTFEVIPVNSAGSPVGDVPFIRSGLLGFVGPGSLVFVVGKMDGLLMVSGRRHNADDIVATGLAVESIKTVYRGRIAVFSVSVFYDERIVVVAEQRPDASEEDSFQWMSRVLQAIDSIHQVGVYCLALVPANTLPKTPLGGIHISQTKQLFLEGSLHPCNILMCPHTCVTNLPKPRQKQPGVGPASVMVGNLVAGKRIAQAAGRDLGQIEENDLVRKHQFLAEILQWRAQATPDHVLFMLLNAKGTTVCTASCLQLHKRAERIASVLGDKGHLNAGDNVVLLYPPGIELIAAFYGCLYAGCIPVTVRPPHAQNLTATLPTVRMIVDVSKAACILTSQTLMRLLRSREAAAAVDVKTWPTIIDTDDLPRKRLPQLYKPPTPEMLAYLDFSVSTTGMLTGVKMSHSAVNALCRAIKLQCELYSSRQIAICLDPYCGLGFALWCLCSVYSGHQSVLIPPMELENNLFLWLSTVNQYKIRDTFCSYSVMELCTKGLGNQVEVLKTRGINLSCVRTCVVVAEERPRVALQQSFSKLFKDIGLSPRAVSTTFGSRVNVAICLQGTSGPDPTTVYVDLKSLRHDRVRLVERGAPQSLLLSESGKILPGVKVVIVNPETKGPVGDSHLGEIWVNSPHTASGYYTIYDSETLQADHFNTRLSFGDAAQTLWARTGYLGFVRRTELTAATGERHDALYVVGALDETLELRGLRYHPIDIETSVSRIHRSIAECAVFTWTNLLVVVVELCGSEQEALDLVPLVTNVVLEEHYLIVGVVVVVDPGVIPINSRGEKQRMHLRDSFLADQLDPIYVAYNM
UniProt Q15700, whole entry, looked up: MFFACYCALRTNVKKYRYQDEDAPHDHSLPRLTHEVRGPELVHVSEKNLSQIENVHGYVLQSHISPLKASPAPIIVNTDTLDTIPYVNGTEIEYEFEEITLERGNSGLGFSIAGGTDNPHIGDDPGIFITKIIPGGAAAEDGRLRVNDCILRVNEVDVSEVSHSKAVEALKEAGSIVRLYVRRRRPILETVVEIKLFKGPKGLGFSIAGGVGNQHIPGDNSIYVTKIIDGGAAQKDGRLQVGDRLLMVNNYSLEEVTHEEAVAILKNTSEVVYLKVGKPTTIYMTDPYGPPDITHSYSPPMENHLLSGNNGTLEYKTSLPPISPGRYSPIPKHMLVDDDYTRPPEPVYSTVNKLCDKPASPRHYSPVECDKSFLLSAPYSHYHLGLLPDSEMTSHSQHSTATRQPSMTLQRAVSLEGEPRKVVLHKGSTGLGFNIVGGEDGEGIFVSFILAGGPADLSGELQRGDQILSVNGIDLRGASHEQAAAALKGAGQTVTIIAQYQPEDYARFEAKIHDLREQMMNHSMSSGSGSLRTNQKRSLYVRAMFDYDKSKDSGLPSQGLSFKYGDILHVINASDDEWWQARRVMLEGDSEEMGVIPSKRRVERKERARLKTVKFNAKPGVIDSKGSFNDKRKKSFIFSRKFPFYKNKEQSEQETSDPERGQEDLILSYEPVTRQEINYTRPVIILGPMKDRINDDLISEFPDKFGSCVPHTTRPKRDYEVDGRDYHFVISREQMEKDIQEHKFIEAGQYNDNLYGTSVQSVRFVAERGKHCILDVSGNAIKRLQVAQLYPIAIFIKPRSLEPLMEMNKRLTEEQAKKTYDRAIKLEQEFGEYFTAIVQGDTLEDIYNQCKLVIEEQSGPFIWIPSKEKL
UniProt O00273: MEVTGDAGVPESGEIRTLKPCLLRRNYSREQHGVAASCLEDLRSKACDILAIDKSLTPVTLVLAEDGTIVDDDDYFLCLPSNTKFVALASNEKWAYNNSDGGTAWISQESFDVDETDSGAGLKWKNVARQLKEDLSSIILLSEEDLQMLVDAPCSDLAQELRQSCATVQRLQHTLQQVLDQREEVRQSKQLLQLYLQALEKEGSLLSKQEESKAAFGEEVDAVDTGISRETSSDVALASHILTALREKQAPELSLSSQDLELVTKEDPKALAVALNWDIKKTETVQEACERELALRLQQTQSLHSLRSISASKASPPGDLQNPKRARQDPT
UniProt Q8IWF6: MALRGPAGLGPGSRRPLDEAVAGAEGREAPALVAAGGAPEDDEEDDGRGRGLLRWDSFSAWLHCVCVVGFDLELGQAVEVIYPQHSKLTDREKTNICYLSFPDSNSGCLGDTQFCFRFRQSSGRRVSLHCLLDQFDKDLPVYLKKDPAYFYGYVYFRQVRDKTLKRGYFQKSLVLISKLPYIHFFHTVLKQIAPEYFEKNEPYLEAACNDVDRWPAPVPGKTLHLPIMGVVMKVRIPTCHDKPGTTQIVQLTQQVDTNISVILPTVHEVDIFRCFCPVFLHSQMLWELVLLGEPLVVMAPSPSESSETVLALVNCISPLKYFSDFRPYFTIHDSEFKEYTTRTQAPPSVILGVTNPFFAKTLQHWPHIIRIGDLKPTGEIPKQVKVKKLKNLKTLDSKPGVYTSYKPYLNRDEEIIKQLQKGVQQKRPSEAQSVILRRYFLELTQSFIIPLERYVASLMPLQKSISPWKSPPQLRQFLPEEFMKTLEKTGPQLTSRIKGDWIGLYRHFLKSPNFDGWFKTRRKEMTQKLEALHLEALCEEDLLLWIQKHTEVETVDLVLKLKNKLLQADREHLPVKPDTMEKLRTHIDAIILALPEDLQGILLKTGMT
UniProt Q02127: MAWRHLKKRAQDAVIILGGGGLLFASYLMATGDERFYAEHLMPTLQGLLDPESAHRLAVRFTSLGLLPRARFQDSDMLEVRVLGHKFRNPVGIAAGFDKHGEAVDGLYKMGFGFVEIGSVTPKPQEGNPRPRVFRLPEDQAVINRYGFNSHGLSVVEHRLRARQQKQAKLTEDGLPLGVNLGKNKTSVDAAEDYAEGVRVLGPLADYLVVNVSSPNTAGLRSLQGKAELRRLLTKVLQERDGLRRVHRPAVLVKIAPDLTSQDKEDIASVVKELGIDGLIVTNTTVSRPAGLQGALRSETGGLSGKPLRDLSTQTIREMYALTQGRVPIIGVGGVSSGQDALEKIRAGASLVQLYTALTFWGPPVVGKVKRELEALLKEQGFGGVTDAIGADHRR
UniProt O94830: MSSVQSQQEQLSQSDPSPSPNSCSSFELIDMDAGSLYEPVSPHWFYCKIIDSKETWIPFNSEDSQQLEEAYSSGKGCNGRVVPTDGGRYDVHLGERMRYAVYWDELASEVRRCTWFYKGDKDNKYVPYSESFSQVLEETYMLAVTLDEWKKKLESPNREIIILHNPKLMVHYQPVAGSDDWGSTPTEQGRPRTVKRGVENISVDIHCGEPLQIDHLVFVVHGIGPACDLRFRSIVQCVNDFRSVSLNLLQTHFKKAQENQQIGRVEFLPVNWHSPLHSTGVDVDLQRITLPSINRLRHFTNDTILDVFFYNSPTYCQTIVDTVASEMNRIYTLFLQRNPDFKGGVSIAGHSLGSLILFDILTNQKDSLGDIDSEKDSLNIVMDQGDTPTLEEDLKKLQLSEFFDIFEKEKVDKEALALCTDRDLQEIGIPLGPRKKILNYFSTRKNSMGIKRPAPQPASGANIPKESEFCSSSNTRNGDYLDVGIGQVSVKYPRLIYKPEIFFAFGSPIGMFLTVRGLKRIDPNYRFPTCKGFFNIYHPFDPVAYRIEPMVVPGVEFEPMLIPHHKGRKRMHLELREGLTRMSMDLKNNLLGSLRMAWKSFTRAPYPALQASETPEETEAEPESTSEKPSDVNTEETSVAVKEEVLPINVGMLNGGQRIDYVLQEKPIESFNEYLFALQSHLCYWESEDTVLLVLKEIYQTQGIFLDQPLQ
UniProt P30046: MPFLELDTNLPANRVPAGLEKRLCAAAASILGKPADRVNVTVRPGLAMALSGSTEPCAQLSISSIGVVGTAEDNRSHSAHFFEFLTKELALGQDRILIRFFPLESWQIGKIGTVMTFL

Assays:
Experiment in all cases: log2 fold change, soluble protein after heating vs DMSO (PISA); higher = thermal stabilisation; K562 cells, 10 uM, 30 min; active = over 0.2 and 3.5 SD of the protein, either way, in both replicates (recomputed)
[1] = compound: CC[C@@H]1C(=O)N(C)c2cnc(Nc3ccc(C(=O)NC4CCN(C)CC4)cc3OC)nc2N1C1CCCC1
Method in brief: (§1)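 Soluble protein was quantified by TMTpro 16plex LC-MS/MS after channel sums were equalised. It was obtained as the supernatant after 21,000xg for 90 min from pooled aliquots of K562 cells (2×10^6 cells/mL, 10 μM compound, 30 min) heated for 3 min across 48°C-58°C and extracted in PBS with 0.5% NP-40 at 4°C. Thermal stability values are relative to control samples and come from duplicates. They are given as log2 fold changes.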

[2] = compound: CC[C@@H]1C(=O)N(C)c2cnc(Nc3ccc(C(=O)N[C@H]4CC[C@H](N5CCN(CC6CC6)CC5)CC4)cc3OC)nc2N1C(C)C [volasertib]
Method in brief: as §1

[3] = compound: CC[C@H](C)N1C=C(C2=C(C=C(C=C21)C3=CN=C(C=C3)N4CCNCC4)C(=O)NCC5=C(C=C(NC5=O)C)C)C
Method in brief: as §1

[4] = compound: CC[C@H](C)[C@@H](C(=O)N[C@@H]([C@@H](C)O)C(=O)N[C@@H](CC(C)C)C(=O)[C@]1(CO1)C)NC(=O)[C@H]([C@@H](C)CC)N(C)C(=O)C [epoxomicin]
Method in brief: as §1

[5] = compound: CCn1c(C(=O)N(C2CC2)C2CC2)cc2c3c(ncn3C)c(Nc3cc(C)n(C)n3)nc21
Method in brief: as §1

[6] = compound: CCn1cc(-c2ccnc3[nH]c(-c4cccc(CN(C)C)c4)cc23)c(-c2ccc(NC(=O)N(C)C)cc2)n1
Method in brief: as §1

[7] = compound: CN(C)CC(=O)Nc1ccc2[nH]c(=O)c3ccccc3c2c1
Method in brief: as §1

[8] = compound: CN(CCOC1=CC=C(C=C1)C[C@H]2C(=O)NC(=O)S2)C3=CC=CC=N3 (racemic) [rosiglitazone]
Method in brief: as §1

[9] = compound: CN1C2=C(C3=C1C(=O)N(N=C3)CC4=CC(=CC=C4)N)SC(=C2)S(=O)C
Method in brief: as §1

[10] = compound: CN1CCC(CNc2ccc3ncc(-c4cccc(OC(F)(F)F)c4)n3n2)CC1
Method in brief: as §1

[11] = compound: CN1CCN(CCOc2cc(OC3CCOCC3)c3c(Nc4c(Cl)ccc5c4OCO5)ncnc3c2)CC1 [saracatinib]
Method in brief: as §1

[12] = compound: CN1CCN(c2nc(C3=C(c4c[nH]c5ccccc45)C(=O)NC3=O)c3ccccc3n2)CC1 [sotrastaurin]
Method in brief: as §1

[13] = compound: CN1CC[C@H](c2c(O)cc(O)c3c(=O)cc(-c4ccccc4Cl)oc23)[C@H](O)C1 [alvocidib]
Method in brief: as §1

[14] = compound: CN1CCc2c(c3ccccc3n2Cc2ccc(C(=O)NO)cc2)C1 [Tubastatin A]
Method in brief: as §1

[15] = compound: CNC(=O)C1=CC=CC=C1NC2=NC(=NC=C2Cl)NC3=C(C=C(C=C3)N4CCOCC4)OC
Method in brief: as §1

[16] = compound: CNC(=O)c1ccc(Nc2ncc(C(F)(F)F)c(NCc3nccnc3N(C)S(C)(=O)=O)n2)cc1 [defactinib]
Method in brief: as §1

[17] = compound: CNCc1ccc(-c2[nH]c3cc(F)cc4c3c2CCNC4=O)cc1 [rucaparib]
Method in brief: as §1

[18] = compound: CNc1nc(-c2ccc3c(N)n[nH]c3c2)cc(N2C[C@@H](C(=O)NC3CCCCC3)CC[C@H]2C)n1
Method in brief: as §1

[19] = compound: COC(=O)N[C@@H](C)CNc1nccc(-c2cn(C(C)C)nc2-c2cc(Cl)cc(NS(C)(=O)=O)c2F)n1 [encorafenib]
Method in brief: as §1

[20] = compound: COC(=O)[C@H](CCSC)NC(=O)C1=C(C=C(C=C1)NC[C@H](CS)N)C2=CC=CC=C2
Method in brief: as §1

Measured: log2 fold change

DHRS11 (UniProt Q6UWP2)
inactive: [1] 0.021 | [2] 0.056 | [3] 0.004 | [4] 0.003 | [5] -0.019 | [6] -0.061 | [7] 0.025 | [8] 0.037 | [9] -0.109 | [10] -0.016 | [11] -0.037 | [12] 0.021 | [13] -0.089 | [14] 0.024 | [15] -0.098 | [16] -0.025 | [17] -0.035 | [18] 0.018 | [19] -0.011 | [20] -0.021

DHX15 (UniProt O43143)
inactive: [1] 0.001 | [2] 0.045 | [3] -0.017 | [4] 0.006 | [5] -0.03 | [6] 0.001 | [7] -0.028 | [8] 0.011 | [9] -0.051 | [10] -0.021 | [11] 0.017 | [12] 0.051 | [13] -0.006 | [14] -0.048 | [15] 0.005 | [16] 0.044 | [17] -0.002 | [18] 0.024 | [19] -0.001 | [20] 0.009

DDX23 (UniProt Q9BUQ8)
inactive: [1] 0.157 | [2] 0.239 | [3] 0.006 | [4] -0.122 | [5] -0.063 | [6] 0.207 | [7] -0.07 | [8] -0.145 | [9] 0.228 | [10] 0.336 | [11] -0.048 | [12] 0.031 | [13] 0.192 | [14] -0.055 | [15] 0.047 | [16] 0.26 | [17] 0.089 | [18] -0.05 | [19] 0.038 | [20] 0.026

DIP2B (UniProt Q9P265)
inactive: [1] 0.02 | [2] -0.037 | [3] 0.023 | [4] 0.011 | [5] 0.001 | [6] -0.031 | [7] 0.003 | [8] 0.015 | [9] -0.082 | [10] -0.008 | [11] 0.02 | [12] -0.005 | [13] -0.015 | [14] -0.017 | [15] -0.017 | [16] -0.041 | [17] -0.017 | [18] 0.004 | [19] 0.004 | [20] -0.018

DHX9 (UniProt Q08211)
inactive: [1] 0.214 | [2] -0.006 | [3] 0 | [4] -0.207 | [5] -0.058 | [6] 0.196 | [7] -0.073 | [8] -0.15 | [9] 0.201 | [10] 0.266 | [11] -0.016 | [12] -0.006 | [13] 0.248 | [14] 0.029 | [15] 0.028 | [16] 0.401 | [17] 0.19 | [18] -0.03 | [19] 0.035 | [20] -0.048

DLG2 isoform 2 (UniProt Q15700)
inactive: [1] 0.055 | [2] -0.106 | [3] 0.004 | [4] 0.033 | [5] 0.059 | [6] -0.015 | [7] -0.001 | [8] 0.233 | [9] 0.05 | [10] -0.165 | [11] 0.012 | [12] -0.086 | [13] -0.057 | [14] -0.003 | [15] 0.009 | [16] -0.018 | [17] -0.012 | [18] 0.001 | [19] 0.08 | [20] -0.09

DECR1 (UniProt Q16698)
inactive: [1] -0.019 | [2] 0.022 | [3] -0.002 | [4] 0.051 | [5] -0.03 | [6] -0.021 | [7] 0.008 | [8] -0.002 | [9] -0.061 | [10] 0.138 | [11] 0.031 | [12] 0.016 | [13] -0.037 | [14] -0.034 | [15] 0.001 | [16] -0.006 | [17] -0.02 | [18] 0.02 | [19] 0 | [20] -0.018

DFFA (UniProt O00273)
inactive: [1] -0.012 | [2] -0.033 | [3] -0.021 | [4] 0.03 | [5] 0.01 | [6] -0.017 | [7] 0.008 | [8] 0.012 | [9] -0.061 | [10] -0.051 | [11] 0.057 | [12] -0.009 | [13] -0.041 | [14] -0.028 | [15] -0.044 | [16] -0.029 | [17] -0.117 | [18] -0.068 | [19] -0.005 | [20] 0.039

2 neighbouring records from above:
DLG2 isoform 2 (UniProt Q15700)
inactive: [1] 0.055 | [2] -0.106 | [3] 0.004 | [4] 0.033 | [5] 0.059 | [6] -0.015 | [7] -0.001 | [8] 0.233 | [9] 0.05 | [10] -0.165 | [11] 0.012 | [12] -0.086 | [13] -0.057 | [14] -0.003 | [15] 0.009 | [16] -0.018 | [17] -0.012 | [18] 0.001 | [19] 0.08 | [20] -0.09

DECR1 (UniProt Q16698)
inactive: [1] -0.019 | [2] 0.022 | [3] -0.002 | [4] 0.051 | [5] -0.03 | [6] -0.021 | [7] 0.008 | [8] -0.002 | [9] -0.061 | [10] 0.138 | [11] 0.031 | [12] 0.016 | [13] -0.037 | [14] -0.034 | [15] 0.001 | [16] -0.006 | [17] -0.02 | [18] 0.02 | [19] 0 | [20] -0.018

Going on with the list:

DMAC2 isoform 4 (UniProt Q9NW81)
inactive: [1] 0.087 | [2] -0.18 | [3] -0.036 | [4] 0.069 | [5] -0.151 | [6] -0.003 | [7] -0.027 | [8] 0.071 | [9] -0.011 | [10] -0.151 | [11] 0.075 | [12] 0 | [13] 0.03 | [14] 0.065 | [15] 0.037 | [16] 0.059 | [17] -0.034 | [18] -0.091 | [19] -0.074 | [20] -0.056

DDX6 (UniProt P26196)
inactive: [1] 0.019 | [2] 0.051 | [3] 0.03 | [4] -0.028 | [5] 0.005 | [6] -0.021 | [7] -0.047 | [8] 0.025 | [9] 0.038 | [10] 0.007 | [11] -0.019 | [12] 0.003 | [13] -0.009 | [14] 0.005 | [15] 0.02 | [16] 0 | [17] 0.062 | [18] 0.011 | [19] 0.007 | [20] -0.026

DENND6A (UniProt Q8IWF6)
inactive: [1] 0.021 | [2] -0.178 | [3] 0.113 | [4] 0.068 | [5] -0.01 | [6] 0.215 | [7] -0.053 | [8] 0.13 | [9] 0.056 | [10] -0.225 | [11] 0.038 | [12] -0.109 | [13] -0.017 | [14] -0.056 | [15] 0.079 | [16] 0.066 | [17] 0.084 | [18] -0.1 | [19] -0.009 | [20] 0.048

DHODH (UniProt Q02127)
inactive: [1] 0.019 | [2] 0.067 | [3] -0.037 | [4] 0.023 | [5] 0.012 | [6] -0.006 | [7] -0.017 | [8] 0.013 | [9] -0.041 | [10] 0.022 | [11] 0.025 | [12] 0.021 | [13] -0.009 | [14] -0.013 | [15] -0.015 | [16] -0.041 | [17] -0.001 | [18] -0.067 | [19] -0.011 | [20] 0.001

DDHD2 (UniProt O94830)
inactive: [1] -0.051 | [2] 0.01 | [3] -0.009 | [4] 0.045 | [5] -0.017 | [6] -0.077 | [7] 0.029 | [8] -0.036 | [9] -0.033 | [10] -0.129 | [11] 0.007 | [12] 0.005 | [13] -0.095 | [14] 0.007 | [15] -0.119 | [16] -0.038 | [17] 0.009 | [18] -0.063 | [19] -0.052 | [20] -0.016

DHX8 (UniProt Q14562)
inactive: [1] 0.01 | [2] -0.003 | [3] -0.079 | [4] -0.033 | [5] -0.03 | [6] 0.078 | [7] -0.07 | [8] 0.058 | [9] 0.004 | [10] -0.212 | [11] -0.013 | [12] 0.035 | [13] 0.117 | [14] -0.035 | [15] -0.066 | [16] 0.066 | [17] 0.015 | [18] -0.036 | [19] -0.006 | [20] 0.016

DDT (UniProt P30046)
inactive: [1] -0.002 | [2] 0.025 | [3] -0.026 | [4] 0.143 | [5] 0.032 | [6] -0.017 | [7] 0.098 | [8] -0.005 | [9] 0.009 | [10] -0.003 | [11] 0.017 | [12] 0.019 | [13] -0.019 | [14] -0.008 | [15] -0.011 | [16] 0.006 | [17] -0.013 | [18] -0.03 | [19] -0.027 | [20] 0.045
